{"sequences": {"note": "Amino acid sequences for entries named in this document (tags omitted). A change or cut given only in a name is not applied to a line headed by its entry.", "UniProt Q14790": "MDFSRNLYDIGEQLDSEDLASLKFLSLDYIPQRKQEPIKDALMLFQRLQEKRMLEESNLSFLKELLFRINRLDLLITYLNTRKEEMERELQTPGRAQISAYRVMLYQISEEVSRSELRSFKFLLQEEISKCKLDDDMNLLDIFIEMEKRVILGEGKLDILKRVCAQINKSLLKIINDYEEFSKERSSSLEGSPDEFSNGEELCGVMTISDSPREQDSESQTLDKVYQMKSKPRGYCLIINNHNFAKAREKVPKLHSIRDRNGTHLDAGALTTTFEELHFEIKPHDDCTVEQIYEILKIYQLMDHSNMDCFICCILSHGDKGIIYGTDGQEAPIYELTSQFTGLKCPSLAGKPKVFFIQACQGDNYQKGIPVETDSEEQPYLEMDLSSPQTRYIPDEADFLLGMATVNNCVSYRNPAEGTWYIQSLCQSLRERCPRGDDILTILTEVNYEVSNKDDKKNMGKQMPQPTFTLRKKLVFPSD", "UniProt Q14019": "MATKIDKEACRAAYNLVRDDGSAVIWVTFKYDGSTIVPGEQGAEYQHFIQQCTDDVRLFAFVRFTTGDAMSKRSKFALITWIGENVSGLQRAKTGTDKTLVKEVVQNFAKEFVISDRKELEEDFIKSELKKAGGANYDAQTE", "UniProt Q14980": "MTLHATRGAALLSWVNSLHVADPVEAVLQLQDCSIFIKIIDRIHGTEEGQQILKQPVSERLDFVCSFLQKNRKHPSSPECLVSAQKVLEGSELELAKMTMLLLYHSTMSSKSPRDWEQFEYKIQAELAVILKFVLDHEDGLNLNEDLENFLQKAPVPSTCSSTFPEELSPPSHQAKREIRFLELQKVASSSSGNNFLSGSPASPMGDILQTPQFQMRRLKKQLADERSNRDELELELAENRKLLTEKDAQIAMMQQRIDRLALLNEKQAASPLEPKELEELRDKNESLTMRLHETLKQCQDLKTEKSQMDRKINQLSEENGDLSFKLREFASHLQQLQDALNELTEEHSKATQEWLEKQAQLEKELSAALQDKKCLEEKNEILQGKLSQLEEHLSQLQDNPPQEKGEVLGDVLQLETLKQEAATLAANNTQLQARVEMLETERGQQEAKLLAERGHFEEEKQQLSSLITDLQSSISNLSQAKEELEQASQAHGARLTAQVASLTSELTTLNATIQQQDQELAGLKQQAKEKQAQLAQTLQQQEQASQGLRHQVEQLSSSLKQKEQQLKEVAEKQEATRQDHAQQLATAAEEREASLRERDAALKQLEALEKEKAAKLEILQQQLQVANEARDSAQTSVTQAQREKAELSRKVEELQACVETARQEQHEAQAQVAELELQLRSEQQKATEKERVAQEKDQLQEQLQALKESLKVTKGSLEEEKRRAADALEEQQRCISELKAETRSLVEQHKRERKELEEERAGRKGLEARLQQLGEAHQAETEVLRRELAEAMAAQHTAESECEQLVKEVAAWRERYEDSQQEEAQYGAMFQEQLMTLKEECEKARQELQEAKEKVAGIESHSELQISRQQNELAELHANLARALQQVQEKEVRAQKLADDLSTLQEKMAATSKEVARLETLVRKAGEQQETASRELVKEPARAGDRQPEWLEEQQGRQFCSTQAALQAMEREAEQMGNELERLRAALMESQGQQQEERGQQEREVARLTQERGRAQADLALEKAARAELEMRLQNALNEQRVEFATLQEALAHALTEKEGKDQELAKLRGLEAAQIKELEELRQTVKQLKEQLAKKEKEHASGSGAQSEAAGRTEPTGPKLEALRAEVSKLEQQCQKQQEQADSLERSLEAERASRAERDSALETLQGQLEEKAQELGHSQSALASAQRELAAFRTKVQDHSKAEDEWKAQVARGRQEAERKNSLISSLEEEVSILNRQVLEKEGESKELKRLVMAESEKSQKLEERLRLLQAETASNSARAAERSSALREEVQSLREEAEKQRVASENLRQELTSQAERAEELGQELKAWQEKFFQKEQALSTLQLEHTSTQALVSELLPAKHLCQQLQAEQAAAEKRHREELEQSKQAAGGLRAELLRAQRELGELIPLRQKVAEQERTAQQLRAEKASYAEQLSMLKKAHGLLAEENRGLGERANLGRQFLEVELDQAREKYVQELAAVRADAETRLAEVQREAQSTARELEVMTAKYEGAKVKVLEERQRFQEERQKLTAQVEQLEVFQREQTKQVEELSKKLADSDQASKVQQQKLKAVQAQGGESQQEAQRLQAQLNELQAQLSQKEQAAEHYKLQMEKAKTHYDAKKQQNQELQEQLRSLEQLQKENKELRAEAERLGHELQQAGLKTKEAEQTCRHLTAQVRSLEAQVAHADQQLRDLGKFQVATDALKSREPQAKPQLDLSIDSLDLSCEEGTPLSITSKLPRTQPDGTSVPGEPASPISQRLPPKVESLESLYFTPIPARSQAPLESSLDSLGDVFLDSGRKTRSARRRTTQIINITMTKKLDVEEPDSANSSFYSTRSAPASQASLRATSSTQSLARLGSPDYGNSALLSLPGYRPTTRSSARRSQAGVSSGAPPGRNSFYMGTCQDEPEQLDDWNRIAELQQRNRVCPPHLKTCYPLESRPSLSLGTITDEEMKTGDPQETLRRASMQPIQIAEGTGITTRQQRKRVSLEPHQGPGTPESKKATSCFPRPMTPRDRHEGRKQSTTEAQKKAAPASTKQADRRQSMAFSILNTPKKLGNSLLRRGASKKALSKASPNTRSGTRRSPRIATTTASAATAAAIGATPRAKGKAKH", "UniProt Q13596, whole entry": "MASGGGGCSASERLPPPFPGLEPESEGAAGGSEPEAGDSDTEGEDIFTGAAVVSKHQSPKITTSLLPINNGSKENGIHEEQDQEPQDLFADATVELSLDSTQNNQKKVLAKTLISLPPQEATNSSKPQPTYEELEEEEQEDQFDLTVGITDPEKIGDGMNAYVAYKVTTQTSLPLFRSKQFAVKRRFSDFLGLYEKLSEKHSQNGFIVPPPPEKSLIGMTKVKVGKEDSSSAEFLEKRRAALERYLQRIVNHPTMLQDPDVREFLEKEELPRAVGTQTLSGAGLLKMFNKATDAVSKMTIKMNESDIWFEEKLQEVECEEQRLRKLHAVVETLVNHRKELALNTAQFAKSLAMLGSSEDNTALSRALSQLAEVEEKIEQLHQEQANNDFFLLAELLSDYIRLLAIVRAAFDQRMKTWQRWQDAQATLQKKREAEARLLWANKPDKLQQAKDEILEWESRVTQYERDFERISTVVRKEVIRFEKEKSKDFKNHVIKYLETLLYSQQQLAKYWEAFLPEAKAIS", "UniProt Q09472, whole entry": "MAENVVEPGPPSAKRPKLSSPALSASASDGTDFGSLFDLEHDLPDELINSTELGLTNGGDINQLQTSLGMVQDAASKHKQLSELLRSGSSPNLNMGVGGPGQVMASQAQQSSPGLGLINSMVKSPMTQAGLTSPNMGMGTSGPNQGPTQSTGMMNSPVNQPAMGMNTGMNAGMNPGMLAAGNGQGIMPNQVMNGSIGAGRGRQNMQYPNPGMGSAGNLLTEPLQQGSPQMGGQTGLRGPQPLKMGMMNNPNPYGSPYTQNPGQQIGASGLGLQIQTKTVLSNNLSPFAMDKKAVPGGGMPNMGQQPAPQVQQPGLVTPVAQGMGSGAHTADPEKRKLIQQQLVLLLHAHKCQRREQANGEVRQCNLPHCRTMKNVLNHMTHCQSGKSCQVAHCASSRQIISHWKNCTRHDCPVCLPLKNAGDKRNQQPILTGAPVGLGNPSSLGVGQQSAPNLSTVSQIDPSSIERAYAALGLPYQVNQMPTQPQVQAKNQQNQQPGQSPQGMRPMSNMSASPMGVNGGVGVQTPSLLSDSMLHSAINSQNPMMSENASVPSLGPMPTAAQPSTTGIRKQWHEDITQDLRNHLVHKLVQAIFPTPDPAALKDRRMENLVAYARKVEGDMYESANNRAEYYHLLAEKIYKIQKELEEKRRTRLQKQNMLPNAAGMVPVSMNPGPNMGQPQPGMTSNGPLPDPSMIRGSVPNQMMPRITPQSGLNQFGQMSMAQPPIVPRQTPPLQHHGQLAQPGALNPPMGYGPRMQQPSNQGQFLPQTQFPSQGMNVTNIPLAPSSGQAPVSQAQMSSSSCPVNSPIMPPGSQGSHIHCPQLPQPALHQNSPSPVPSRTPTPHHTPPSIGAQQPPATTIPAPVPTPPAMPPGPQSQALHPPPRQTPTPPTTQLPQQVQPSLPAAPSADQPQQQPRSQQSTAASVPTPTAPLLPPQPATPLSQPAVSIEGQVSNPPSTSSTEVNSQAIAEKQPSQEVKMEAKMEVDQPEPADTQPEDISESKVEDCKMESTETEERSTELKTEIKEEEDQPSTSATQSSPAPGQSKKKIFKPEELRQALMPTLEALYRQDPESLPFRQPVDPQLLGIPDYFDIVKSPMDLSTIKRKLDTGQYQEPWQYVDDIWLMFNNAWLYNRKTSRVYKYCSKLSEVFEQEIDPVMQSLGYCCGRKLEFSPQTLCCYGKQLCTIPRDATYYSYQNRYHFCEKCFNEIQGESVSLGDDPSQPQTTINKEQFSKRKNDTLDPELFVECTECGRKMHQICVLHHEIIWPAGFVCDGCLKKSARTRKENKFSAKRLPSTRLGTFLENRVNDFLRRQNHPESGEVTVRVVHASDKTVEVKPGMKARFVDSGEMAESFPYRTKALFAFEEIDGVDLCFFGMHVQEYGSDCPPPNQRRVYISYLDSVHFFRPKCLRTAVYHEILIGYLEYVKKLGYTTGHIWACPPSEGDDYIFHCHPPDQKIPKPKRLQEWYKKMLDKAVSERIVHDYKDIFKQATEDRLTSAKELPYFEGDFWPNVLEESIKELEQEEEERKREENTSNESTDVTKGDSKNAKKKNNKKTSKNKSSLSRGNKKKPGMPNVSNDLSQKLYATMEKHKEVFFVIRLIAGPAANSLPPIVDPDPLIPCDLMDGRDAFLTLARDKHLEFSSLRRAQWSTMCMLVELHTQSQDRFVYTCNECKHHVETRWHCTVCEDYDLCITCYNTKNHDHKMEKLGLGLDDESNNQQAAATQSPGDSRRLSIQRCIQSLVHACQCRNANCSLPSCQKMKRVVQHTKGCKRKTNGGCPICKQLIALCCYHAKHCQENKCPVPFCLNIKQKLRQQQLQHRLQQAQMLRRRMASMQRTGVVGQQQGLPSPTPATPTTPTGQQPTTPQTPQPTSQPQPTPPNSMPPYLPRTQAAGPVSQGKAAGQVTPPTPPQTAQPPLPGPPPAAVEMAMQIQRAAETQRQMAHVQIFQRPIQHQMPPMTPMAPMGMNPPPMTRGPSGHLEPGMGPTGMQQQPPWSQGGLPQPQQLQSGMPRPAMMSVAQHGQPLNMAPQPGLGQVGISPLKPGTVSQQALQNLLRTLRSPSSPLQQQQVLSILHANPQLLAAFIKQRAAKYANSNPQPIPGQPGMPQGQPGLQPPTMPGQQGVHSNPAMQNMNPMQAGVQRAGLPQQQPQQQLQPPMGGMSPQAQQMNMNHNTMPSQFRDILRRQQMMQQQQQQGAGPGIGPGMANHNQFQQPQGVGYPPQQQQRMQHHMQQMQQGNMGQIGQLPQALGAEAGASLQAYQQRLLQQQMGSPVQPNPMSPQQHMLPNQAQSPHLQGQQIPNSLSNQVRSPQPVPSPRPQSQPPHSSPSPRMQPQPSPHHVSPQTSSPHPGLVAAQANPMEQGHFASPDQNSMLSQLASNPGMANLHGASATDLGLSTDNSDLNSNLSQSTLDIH", "UniProt Q13362, whole entry, looked up": "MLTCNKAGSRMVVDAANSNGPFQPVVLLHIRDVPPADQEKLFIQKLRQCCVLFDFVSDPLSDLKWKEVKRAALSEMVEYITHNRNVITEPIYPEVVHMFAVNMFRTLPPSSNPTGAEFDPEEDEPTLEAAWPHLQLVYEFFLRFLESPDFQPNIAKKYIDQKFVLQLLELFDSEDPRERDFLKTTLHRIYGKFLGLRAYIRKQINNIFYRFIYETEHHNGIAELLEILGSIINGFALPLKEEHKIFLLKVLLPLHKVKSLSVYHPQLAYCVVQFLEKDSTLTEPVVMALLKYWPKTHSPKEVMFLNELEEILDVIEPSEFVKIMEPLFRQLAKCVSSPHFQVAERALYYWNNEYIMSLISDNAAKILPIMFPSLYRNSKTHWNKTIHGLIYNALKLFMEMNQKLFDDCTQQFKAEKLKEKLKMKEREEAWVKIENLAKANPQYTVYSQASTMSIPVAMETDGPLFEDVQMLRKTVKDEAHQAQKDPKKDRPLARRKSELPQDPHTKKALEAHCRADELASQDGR", "UniProt Q13571": "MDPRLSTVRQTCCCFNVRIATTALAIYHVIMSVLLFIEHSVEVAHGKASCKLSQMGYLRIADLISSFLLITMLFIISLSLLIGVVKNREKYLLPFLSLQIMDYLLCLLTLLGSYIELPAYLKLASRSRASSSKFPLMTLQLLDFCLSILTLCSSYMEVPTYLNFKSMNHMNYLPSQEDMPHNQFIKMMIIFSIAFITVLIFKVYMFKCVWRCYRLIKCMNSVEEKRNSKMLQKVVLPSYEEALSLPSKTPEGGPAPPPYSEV", "UniProt Q13542": "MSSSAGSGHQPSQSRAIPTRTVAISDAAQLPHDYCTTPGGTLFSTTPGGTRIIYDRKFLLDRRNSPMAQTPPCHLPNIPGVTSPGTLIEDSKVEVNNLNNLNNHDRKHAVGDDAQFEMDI"}, "source": "the supplement of paper PMC6411743", "note": "± gives the standard deviation of the averaged measurements. The list shows a part of the results, in another mix than the full data.", "data": [{"compound": "Nc1ncnc2c1ncn2[C@@H]1O[C@H](COP(=O)(O)OP(=O)(O)NP(=O)(O)O)[C@@H](O)[C@H]1O [adenylyl imidodiphosphate]", "assay": "NP40-soluble protein abundance relative to vehicle (solubility fold change) (ratio); higher = more soluble protein in presence of AMP-PNP", "details": "concentration: 10mM", "in_short": "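Jurkat crude lysate (Dounce-homogenised) was treated with eight concentrations from 0.1 to 10 mM for 10 min at room temperature, then 3 min at 37 °C. It was solubilised with 0.8% NP40 and benzonase (60 min, 4 °C) and ultracentrifuged, and the supernatant was TMT-labelled for LC-MS/MS. Intensities were vsn-normalised, and the value is the fold change against the NP40-processed vehicle per replicate, from three independent experiments.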", "values": [{"target": "UniProt Q15025 and related entries", "NP40-soluble protein abundance": "0.893 ± 0.034"}, {"target": "UniProt Q12769 and related entries", "NP40-soluble protein abundance": "0.991 ± 0.019"}, {"target": "EIF2B5 (UniProt Q13144)", "NP40-soluble protein abundance": "1.01 ± 0.053"}, {"target": "UniProt Q14790 and related entries", "NP40-soluble protein abundance": "0.954 ± 0.0099"}, {"target": "COTL1 (UniProt Q14019)", "NP40-soluble protein abundance": "1.02 ± 0.06"}, {"target": "UniProt Q12933 and related entries", "NP40-soluble protein abundance": "0.97 ± 0.046"}, {"target": "URB2 (UniProt Q14146)", "NP40-soluble protein abundance": "1.1 ± 0.055"}, {"target": "AHNAK (UniProt Q09666)", "NP40-soluble protein abundance": "0.984 ± 0.049"}, {"target": "UniProt Q12974 and related entries", "NP40-soluble protein abundance": "0.988 ± 0.02"}, {"target": "PMPCA (UniProt Q10713)", "NP40-soluble protein abundance": "0.905 ± 0.019"}, {"target": "UniProt Q14980 and related entries", "NP40-soluble protein abundance": "0.906 ± 0.056"}, {"target": "UniProt Q14CB8 and related entries", "NP40-soluble protein abundance": "0.99 ± 0.044"}, {"target": "RAB33A (UniProt Q14088)", "NP40-soluble protein abundance": "0.988 ± 0.054"}, {"target": "EIF3A (UniProt Q14152)", "NP40-soluble protein abundance": "1.38 ± 0.19"}, {"target": "SNX1 (UniProt Q13596)", "NP40-soluble protein abundance": "1.03 ± 0.017"}, {"target": "IQGAP2 (UniProt Q13576)", "NP40-soluble protein abundance": "0.932 ± 0.038"}, {"target": "EP300 (UniProt Q09472)", "NP40-soluble protein abundance": "1.03 ± 0.014"}, {"target": "UniProt Q13362-2|Q13362-3|Q13362-4", "NP40-soluble protein abundance": "0.966 ± 0.043"}, {"target": "IK (UniProt Q13123)", "NP40-soluble protein abundance": "1.26 ± 0.023"}, {"target": "UniProt Q15006", "NP40-soluble protein abundance": "1.02 ± 0.013"}, {"target": "SMC1A (UniProt Q14683)", "NP40-soluble protein abundance": "1.04 ± 0.052"}, {"target": "UniProt Q13131 and related entries", "NP40-soluble protein abundance": "1.03 ± 0.026"}, {"target": "UniProt Q13191 and related entries", "NP40-soluble protein abundance": "1 ± 0.036"}, {"target": "LAPTM5 (UniProt Q13571)", "NP40-soluble protein abundance": "0.984 ± 0.038"}, {"target": "UniProt Q13472 and related entries", "NP40-soluble protein abundance": "1.01 ± 0.076"}, {"target": "EIF4EBP2 (UniProt Q13542)", "NP40-soluble protein abundance": "1.08 ± 0.0052"}, {"target": "TMED1 (UniProt Q13445)", "NP40-soluble protein abundance": "0.955 ± 0.024"}, {"target": "ITPR2 (UniProt Q14571)", "NP40-soluble protein abundance": "0.966 ± 0.15"}, {"target": "UniProt Q13535 and related entries", "NP40-soluble protein abundance": "0.991 ± 0.042"}, {"target": "UniProt Q15084 and related entries", "NP40-soluble protein abundance": "0.94 ± 0.047"}, {"target": "LCP2 (UniProt Q13094)", "NP40-soluble protein abundance": "0.947 ± 0.061"}, {"target": "DNAJC3 (UniProt Q13217)", "NP40-soluble protein abundance": "0.999 ± 0.022"}, {"target": "BLMH (UniProt Q13867)", "NP40-soluble protein abundance": "0.911 ± 0.099"}, {"target": "UniProt Q13243", "NP40-soluble protein abundance": "1.36 ± 0.12"}, {"target": "UniProt Q15046", "NP40-soluble protein abundance": "0.87 ± 0.15"}, {"target": "UniProt Q10589 and related entries", "NP40-soluble protein abundance": "1.04 ± 0.048"}]}]}
